Experimental data reported in US12473377B2 (Synthis Therapeutics, Inc., priority 2016, dated 2025).

Assay: general procedure: Fmoc solid-phase peptide synthesis; 2-chlorotrityl chloride resin; HBTU/HOBT, DIPEA

Substance “(2R,5S,8S,11S,14S,19S)-19-(2-(tert-butoxy carbonyl aminooxy)acetamido)-5,8, 14-tris(carboxymethyl)-11-(3-guanidinopropyl)-2-(((2-(methyl(2-(4-(4-(4-(6-methylpyridin-2-yl)-1H-pyrazol-3-yl)pyridin-2-l)phenoxy)ethyl)carbamoyloxy)ethyl)disulfanyl)methyl)-4,7,10, 13,16-pentaoxo-3,6,9,12,15-pentaazaicosane-1,20-dioic acid” has a step yield (late stage modification step) of 33%.

In the case of “(2R,5S,8S,11S,14S,19S)-19-amino-5,8,14-tris (carboxy methyl)-11-(3-guanidinopropyl)-2-(((2-(methyl(2-(4-(4-(4-(6-methylpyridin-2-yl)-1H-pyrazol-3-yl)pyridin-2-yl)phenoxy)ethyl)carbamoyloxy)ethyl)disulfanyl) methyl)-4,7,10,13,16-pentaoxo-3,6,9,12,15-pentaazaicosane-1,20-dioic acid”, the conjugation yield (conjugation step) is reported as 31%.
